Some entries of the source have several records that differ or are many. This is not the full list of results. The source may hold further records. The records of an entry differ for a reason that is not stated; some may be repeats, others may stem from another dose, organism or construct than stated.

One compound from US20030157516A1, “G protein coupled receptor” (priority 2000, published 2003) can be followed below.

This assay concerns wild type CHO cells. Nature of the assay: [3H]adenine saturation binding on wild type CHO membranes. The conditions noted are these: single experiments, tested as the radiolabelled form, listed as [^3H] adenine.

As a reminder, the Kd is a measure of binding affinity in units of concentration. Lower therefore signals tighter binding. Take `Nc1ncnc2nc[nH]c12`: the Kd is given as 5 nM, 25 nM, 17 nM (100 μM Gpp-NHp) and 34 nM, 15 nM, 30 nM (No Gpp-NHp).
